The supplement of paper PMC11732987, “Enantioselective OTUD7B fragment discovery through chemoproteomics screening and high-throughput optimisation” (Communications Chemistry, 2025)
The list shows a part of the results. The data scatter; read single values as rough.

Amino acid sequences for entries named in this document (tags omitted). A change or cut given only in a name is not applied to a line headed by its entry. Residues count along the entry.
UniProt Q02218: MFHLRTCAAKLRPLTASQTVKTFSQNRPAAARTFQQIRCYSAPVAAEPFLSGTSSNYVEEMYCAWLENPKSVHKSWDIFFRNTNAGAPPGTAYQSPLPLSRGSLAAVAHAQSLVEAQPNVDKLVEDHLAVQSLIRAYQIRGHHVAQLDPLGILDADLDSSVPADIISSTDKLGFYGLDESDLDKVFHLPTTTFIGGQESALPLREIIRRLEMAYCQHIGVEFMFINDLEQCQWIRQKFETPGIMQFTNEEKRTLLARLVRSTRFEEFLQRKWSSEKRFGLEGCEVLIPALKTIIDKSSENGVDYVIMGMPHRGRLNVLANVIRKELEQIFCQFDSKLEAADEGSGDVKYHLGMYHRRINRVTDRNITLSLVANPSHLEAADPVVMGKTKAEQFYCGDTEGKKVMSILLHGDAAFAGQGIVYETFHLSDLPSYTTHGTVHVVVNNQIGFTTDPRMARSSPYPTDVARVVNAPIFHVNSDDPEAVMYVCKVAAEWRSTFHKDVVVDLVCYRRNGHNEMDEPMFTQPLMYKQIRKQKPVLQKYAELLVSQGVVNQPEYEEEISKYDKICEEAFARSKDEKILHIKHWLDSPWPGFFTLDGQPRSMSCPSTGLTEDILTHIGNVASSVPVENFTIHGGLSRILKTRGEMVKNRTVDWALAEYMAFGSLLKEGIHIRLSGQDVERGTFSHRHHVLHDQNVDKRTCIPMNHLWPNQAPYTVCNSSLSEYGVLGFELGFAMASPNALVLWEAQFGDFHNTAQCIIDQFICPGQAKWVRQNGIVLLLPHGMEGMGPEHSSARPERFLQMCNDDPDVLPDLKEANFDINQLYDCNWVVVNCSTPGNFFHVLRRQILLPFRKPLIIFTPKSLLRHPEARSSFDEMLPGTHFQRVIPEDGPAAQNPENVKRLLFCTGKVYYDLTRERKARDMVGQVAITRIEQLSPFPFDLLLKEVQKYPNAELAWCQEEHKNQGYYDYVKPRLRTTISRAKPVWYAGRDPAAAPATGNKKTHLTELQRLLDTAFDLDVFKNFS
UniProt Q8NFH5: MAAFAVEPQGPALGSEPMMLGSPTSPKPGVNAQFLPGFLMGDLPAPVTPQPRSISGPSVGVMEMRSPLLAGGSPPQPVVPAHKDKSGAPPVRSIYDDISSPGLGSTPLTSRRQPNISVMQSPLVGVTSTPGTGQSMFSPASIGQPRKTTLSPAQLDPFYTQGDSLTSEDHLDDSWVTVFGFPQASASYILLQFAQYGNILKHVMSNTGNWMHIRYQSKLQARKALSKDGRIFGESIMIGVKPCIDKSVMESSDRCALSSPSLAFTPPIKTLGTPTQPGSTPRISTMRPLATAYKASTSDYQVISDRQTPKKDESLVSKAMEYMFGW
UniProt P49790, whole entry, looked up: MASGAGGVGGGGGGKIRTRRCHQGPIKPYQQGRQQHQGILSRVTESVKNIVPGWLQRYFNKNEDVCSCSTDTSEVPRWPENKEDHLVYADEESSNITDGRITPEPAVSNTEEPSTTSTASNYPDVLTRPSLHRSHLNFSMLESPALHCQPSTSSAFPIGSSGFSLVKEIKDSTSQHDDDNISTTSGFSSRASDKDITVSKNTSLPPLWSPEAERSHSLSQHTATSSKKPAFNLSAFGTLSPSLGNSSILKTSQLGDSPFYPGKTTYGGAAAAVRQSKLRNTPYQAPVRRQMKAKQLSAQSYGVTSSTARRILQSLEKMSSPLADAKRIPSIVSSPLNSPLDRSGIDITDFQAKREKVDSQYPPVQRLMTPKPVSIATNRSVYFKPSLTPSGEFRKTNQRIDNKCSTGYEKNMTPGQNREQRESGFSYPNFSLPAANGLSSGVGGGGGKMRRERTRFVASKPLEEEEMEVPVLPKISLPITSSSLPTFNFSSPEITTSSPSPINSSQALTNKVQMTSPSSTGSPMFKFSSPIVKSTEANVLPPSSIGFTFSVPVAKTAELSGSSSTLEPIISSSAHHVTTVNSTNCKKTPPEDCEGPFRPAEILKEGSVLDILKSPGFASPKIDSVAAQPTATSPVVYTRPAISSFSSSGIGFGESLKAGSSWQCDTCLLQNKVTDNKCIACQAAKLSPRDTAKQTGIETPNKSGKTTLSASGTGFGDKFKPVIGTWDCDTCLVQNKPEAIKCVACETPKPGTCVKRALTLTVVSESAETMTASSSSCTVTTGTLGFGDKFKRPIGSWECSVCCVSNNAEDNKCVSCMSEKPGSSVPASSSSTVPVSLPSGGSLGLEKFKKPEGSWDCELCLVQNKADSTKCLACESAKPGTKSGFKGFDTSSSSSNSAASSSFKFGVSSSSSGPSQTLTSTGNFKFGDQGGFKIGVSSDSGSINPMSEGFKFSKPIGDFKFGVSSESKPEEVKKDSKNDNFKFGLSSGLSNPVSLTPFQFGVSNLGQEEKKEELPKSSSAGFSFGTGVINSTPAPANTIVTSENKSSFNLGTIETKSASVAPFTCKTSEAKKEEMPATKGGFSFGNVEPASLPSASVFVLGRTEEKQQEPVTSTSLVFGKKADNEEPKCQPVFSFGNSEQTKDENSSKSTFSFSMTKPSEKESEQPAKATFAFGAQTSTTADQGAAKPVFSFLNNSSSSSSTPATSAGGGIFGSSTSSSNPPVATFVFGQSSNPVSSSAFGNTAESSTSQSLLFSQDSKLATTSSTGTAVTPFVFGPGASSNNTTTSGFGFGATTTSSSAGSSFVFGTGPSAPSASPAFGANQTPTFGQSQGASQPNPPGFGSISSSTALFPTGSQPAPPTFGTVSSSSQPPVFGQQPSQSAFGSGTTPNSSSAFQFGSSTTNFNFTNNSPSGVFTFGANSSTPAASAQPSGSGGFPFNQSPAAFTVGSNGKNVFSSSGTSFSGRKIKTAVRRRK
UniProt Q9BZF3: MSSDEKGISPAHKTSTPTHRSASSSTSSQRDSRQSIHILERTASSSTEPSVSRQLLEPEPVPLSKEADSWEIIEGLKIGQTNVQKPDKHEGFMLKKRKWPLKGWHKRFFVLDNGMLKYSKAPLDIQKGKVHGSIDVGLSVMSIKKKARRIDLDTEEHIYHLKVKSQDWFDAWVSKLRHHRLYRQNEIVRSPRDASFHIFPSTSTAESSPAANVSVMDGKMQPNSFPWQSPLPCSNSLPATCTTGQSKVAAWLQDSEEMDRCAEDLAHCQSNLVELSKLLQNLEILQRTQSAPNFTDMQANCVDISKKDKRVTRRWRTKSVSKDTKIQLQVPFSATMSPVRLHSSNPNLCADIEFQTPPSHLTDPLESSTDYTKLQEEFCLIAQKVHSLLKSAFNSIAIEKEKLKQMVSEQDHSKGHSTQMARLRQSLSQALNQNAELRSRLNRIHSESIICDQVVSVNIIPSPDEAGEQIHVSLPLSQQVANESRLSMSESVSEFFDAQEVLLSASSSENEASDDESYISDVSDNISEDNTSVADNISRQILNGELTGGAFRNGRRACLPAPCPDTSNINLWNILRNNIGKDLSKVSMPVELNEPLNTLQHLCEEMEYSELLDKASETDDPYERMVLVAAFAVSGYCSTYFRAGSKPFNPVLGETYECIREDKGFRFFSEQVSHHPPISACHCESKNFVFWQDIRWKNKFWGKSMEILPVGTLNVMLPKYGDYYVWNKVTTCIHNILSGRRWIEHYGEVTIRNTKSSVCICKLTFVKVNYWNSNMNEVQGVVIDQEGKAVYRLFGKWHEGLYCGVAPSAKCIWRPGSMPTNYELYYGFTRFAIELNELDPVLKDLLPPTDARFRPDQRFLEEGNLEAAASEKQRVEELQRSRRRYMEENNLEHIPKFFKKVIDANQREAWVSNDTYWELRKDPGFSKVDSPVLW
UniProt Q9NZT2: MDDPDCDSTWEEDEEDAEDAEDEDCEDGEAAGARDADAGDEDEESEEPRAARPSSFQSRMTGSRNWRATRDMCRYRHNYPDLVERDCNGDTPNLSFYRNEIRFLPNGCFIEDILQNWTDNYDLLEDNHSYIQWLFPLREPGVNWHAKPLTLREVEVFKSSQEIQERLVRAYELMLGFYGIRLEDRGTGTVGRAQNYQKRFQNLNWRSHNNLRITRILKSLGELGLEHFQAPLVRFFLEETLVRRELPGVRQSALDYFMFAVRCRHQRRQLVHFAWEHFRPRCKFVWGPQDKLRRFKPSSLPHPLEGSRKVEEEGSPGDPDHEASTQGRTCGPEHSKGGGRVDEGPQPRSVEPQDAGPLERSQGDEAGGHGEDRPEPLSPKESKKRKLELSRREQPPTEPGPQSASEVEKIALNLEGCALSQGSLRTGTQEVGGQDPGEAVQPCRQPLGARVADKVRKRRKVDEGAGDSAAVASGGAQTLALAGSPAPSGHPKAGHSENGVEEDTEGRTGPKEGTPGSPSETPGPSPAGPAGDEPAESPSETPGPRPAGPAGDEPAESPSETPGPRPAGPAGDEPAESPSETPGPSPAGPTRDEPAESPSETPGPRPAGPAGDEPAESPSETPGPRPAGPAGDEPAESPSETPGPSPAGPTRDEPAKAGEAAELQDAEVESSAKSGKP
UniProt Q9H4L5: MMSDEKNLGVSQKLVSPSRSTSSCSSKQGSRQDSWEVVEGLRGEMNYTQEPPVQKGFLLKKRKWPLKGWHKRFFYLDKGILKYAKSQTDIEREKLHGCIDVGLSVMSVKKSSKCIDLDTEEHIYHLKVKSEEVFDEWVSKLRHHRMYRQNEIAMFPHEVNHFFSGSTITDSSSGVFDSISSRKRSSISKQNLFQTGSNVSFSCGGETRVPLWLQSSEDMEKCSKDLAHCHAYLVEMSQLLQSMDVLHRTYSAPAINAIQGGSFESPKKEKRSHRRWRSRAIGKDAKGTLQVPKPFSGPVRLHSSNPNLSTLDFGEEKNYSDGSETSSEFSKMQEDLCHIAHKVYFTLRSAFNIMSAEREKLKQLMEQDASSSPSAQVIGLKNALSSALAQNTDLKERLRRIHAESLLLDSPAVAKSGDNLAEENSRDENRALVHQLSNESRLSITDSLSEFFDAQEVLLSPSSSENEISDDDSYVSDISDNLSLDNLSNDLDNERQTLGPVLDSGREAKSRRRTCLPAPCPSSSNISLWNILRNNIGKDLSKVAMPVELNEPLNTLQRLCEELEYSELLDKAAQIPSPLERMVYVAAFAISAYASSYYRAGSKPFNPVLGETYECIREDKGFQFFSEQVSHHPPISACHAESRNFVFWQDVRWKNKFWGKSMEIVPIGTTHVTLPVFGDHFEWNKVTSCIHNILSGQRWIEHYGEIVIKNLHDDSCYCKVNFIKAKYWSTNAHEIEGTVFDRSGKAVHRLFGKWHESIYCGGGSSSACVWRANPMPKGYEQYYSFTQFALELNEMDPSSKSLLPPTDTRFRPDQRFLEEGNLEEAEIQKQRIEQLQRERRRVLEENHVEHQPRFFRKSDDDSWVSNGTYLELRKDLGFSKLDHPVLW
UniProt Q92636: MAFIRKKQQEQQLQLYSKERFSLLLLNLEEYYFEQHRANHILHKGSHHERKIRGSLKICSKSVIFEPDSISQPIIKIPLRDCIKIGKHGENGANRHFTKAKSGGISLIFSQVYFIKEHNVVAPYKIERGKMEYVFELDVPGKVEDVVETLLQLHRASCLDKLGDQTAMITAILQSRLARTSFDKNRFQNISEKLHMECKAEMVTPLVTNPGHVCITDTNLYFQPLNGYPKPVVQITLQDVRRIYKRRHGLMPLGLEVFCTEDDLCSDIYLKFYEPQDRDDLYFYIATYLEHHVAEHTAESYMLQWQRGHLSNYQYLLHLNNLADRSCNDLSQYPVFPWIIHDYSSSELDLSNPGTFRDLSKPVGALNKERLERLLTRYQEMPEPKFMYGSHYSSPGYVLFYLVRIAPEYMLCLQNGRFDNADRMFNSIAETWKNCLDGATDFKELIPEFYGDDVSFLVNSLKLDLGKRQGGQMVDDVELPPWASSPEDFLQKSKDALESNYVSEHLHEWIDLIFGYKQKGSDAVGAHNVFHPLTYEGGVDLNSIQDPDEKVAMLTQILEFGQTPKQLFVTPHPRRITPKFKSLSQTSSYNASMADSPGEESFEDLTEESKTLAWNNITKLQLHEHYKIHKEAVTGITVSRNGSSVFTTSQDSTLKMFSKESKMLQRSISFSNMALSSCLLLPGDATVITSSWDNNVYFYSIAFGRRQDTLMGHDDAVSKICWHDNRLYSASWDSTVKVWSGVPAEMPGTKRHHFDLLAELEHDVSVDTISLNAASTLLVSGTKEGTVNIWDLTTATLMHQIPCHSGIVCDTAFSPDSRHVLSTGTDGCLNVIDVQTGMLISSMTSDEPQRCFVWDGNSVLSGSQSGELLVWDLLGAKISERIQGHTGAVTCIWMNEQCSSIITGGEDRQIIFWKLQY
UniProt P10588, 307-330: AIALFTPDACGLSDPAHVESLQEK
UniProt Q969T7: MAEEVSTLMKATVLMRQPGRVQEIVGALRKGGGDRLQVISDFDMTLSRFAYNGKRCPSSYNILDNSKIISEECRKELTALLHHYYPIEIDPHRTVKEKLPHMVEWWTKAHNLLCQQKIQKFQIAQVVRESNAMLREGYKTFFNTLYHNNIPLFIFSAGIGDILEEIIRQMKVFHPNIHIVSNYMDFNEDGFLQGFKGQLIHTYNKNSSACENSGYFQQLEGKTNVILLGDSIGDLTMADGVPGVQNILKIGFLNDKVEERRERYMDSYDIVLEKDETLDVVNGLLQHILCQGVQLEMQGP

Each target was assayed with ClCC(=O)N[C@@H]1CCCc2ccccc12 (assay: log2 mean competition ratio of IA-DTB cysteine labelling (DMSO/compound) (log2 ratio); higher = stronger cysteine engagement by compound). Details: 50 µM; treatment time: 4 h; cell line lysate: HEK293T.
Procedure: (§1)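 IA-DTB competitive cysteine chemoproteomics in HEK293T RIPA lysate. Lysates were treated with compound 29 or 30 at 50 or 200 µM for 4 h, then IA-DTB (500 µM, 1 h), trypsin-digested, NeutrAvidin-enriched and analysed by diaPASEF. Competition ratio = intensity DMSO / intensity compound (n=4 treated, n=64 DMSO); binding: mean log2 CR ≥ 1 and p ≤ 0.05 plus QC filters. Target is the cysteine site.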
In the case of ODF2L C16 (UniProt Q9ULJ1), the “log2 mean competition ratio” value is reported as 0.225.
For NUP155 C974 (UniProt O75694), the “log2 mean competition ratio” value was -0.107.
For NSD3 C1292 (UniProt Q9BZ95), the “log2 mean competition ratio” value was -0.0271.
In the case of OPA3 C164 (UniProt Q9H6K4), the “log2 mean competition ratio” value is reported as -0.0636.
With OCRL C811 (UniProt Q01968) the “log2 mean competition ratio” value was -0.0206.
NSD1 C1185 (UniProt Q96L73) was tested, and the “log2 mean competition ratio” value was -0.0293.
For NSD2 C594 (UniProt O96028), the “log2 mean competition ratio” value was -0.385.
NUMB C176 (UniProt P49757) was tested, and the “log2 mean competition ratio” value was -0.0933.
OBI1 C506 (UniProt Q5W0B1) was tested, and the “log2 mean competition ratio” value was 0.239.
In the case of NUMBL C206 (UniProt Q9Y6R0), the “log2 mean competition ratio” value is reported as -0.0103.
With NRBF2 C155 (UniProt Q96F24) the “log2 mean competition ratio” value was -0.0576.
With NR1D2 C374 the “log2 mean competition ratio” value was -0.00729.
In the case of NUMA1 C375 (UniProt Q14980), the “log2 mean competition ratio” value is reported as -0.0559.
In the case of NUP98 C1347 (UniProt P52948), the “log2 mean competition ratio” value is reported as 0.0795.
For OGDH C283 (UniProt Q02218), the “log2 mean competition ratio” value was -0.00431.
With NUP35 C243 (UniProt Q8NFH5) the “log2 mean competition ratio” value was 0.533.
In the case of NSD1 C342 (UniProt Q96L73), the “log2 mean competition ratio” value is reported as 0.332.
NOTCH2 C1252 (UniProt Q04721) was tested, and the “log2 mean competition ratio” value was -0.0277.
NUP205 C1216 (UniProt Q92621) was tested, and the “log2 mean competition ratio” value was -0.154.
NUP153 C404 (UniProt P49790) was tested, and the “log2 mean competition ratio” value was 0.0627.
With NPAT C1002 (UniProt Q14207) the “log2 mean competition ratio” value was 0.327.
With NT5C3A C120 (UniProt Q9H0P0) the “log2 mean competition ratio” value was -0.218.
With OSBPL6 C379 (UniProt Q9BZF3) the “log2 mean competition ratio” value was 0.0952.
With OBSL1 C13 (UniProt O75147) the “log2 mean competition ratio” value was 0.0504.
With NVL C309 (UniProt O15381) the “log2 mean competition ratio” value was 0.104.
With NR0B1 C255 the “log2 mean competition ratio” value was 0.402.
In the case of OGFR C443 (UniProt Q9NZT2), the “log2 mean competition ratio” value is reported as -0.258.
In the case of NPLOC4 C130, the “log2 mean competition ratio” value is reported as -0.0771.
With NTMT1 C184 the “log2 mean competition ratio” value was -0.146.
With OSBPL3 C114 (UniProt Q9H4L5) the “log2 mean competition ratio” value was -0.0208.
NUP155 C1344 (UniProt O75694) was tested, and the “log2 mean competition ratio” value was -0.254.
In the case of NSMAF C435 (UniProt Q92636), the “log2 mean competition ratio” value is reported as 0.0112.
For NR2F6 C316 (UniProt P10588), the “log2 mean competition ratio” value was 0.293.
For NSMCE1 C40 (UniProt Q8WV22), the “log2 mean competition ratio” value was 0.465.
For NUP85 C51 (UniProt Q9BW27), the “log2 mean competition ratio” value was 0.471.
For NT5C3B C114 (UniProt Q969T7), the “log2 mean competition ratio” value was -0.0995.
NUP54 C180 (UniProt Q7Z3B4) was tested, and the “log2 mean competition ratio” value was 0.274.

Same assay, conditions: 200 µM; treatment time: 4 h; cell line lysate: HEK293T
In the case of ODF2L C16 (UniProt Q9ULJ1), the “log2 mean competition ratio” value is reported as 0.0369.
In the case of NUP155 C974 (UniProt O75694), the “log2 mean competition ratio” value is reported as -0.0438.
In the case of NSD3 C1292 (UniProt Q9BZ95), the “log2 mean competition ratio” value is reported as -0.144.
For OPA3 C164 (UniProt Q9H6K4), the “log2 mean competition ratio” value was 0.0121.
For OCRL C811 (UniProt Q01968), the “log2 mean competition ratio” value was 0.411.
NSD1 C1185 (UniProt Q96L73) was tested, and the “log2 mean competition ratio” value was 0.165.
NSD2 C594 (UniProt O96028) was tested, and the “log2 mean competition ratio” value was 0.153.
In the case of NUMB C176 (UniProt P49757), the “log2 mean competition ratio” value is reported as -0.163.
For OBI1 C506 (UniProt Q5W0B1), the “log2 mean competition ratio” value was 0.18.
For NUMBL C206 (UniProt Q9Y6R0), the “log2 mean competition ratio” value was 0.128.
For NRBF2 C155 (UniProt Q96F24), the “log2 mean competition ratio” value was -0.19.
NR1D2 C374 was tested, and the “log2 mean competition ratio” value was -0.11.
In the case of NUMA1 C375 (UniProt Q14980), the “log2 mean competition ratio” value is reported as -0.129.
In the case of NUP98 C1347 (UniProt P52948), the “log2 mean competition ratio” value is reported as -0.228.
For OGDH C283 (UniProt Q02218), the “log2 mean competition ratio” value was -0.108.
For NUP35 C243 (UniProt Q8NFH5), the “log2 mean competition ratio” value was 0.607.
With NSD1 C342 (UniProt Q96L73) the “log2 mean competition ratio” value was 0.381.
NOTCH2 C1252 (UniProt Q04721) was tested, and the “log2 mean competition ratio” value was 0.326.
In the case of NUP205 C1216 (UniProt Q92621), the “log2 mean competition ratio” value is reported as 0.105.
In the case of NUP153 C404 (UniProt P49790), the “log2 mean competition ratio” value is reported as -0.00734.
In the case of NPAT C1002 (UniProt Q14207), the “log2 mean competition ratio” value is reported as -0.438.
NT5C3A C120 (UniProt Q9H0P0) was tested, and the “log2 mean competition ratio” value was 0.385.
With OSBPL6 C379 (UniProt Q9BZF3) the “log2 mean competition ratio” value was -0.196.
In the case of OBSL1 C13 (UniProt O75147), the “log2 mean competition ratio” value is reported as -0.375.
For NVL C309 (UniProt O15381), the “log2 mean competition ratio” value was 0.0778.
With NR0B1 C255 the “log2 mean competition ratio” value was 0.517.
OGFR C443 (UniProt Q9NZT2) was tested, and the “log2 mean competition ratio” value was 0.0245.
In the case of NPLOC4 C130, the “log2 mean competition ratio” value is reported as 0.39.
For NTMT1 C184, the “log2 mean competition ratio” value was 0.185.
OSBPL3 C114 (UniProt Q9H4L5) was tested, and the “log2 mean competition ratio” value was -0.0646.
NUP155 C1344 (UniProt O75694) was tested, and the “log2 mean competition ratio” value was 0.269.
For NSMAF C435 (UniProt Q92636), the “log2 mean competition ratio” value was -0.0931.
NR2F6 C316 (UniProt P10588) was tested, and the “log2 mean competition ratio” value was 0.24.
NSMCE1 C40 (UniProt Q8WV22) was tested, and the “log2 mean competition ratio” value was -0.168.
For NUP85 C51 (UniProt Q9BW27), the “log2 mean competition ratio” value was 0.151.
For NT5C3B C114 (UniProt Q969T7), the “log2 mean competition ratio” value was -0.2.
With NUP54 C180 (UniProt Q7Z3B4) the “log2 mean competition ratio” value was 0.747.

These targets were tested with ClCC(=O)N[C@H]1CCCc2ccccc12 in the same assay as above. Details: 50 µM; treatment time: 4 h; cell line lysate: HEK293T.
Procedure: as §1
With ODF2L C16 (UniProt Q9ULJ1) the “log2 mean competition ratio” value was -0.664.
With NUP155 C974 (UniProt O75694) the “log2 mean competition ratio” value was -0.0835.
With NSD3 C1292 (UniProt Q9BZ95) the “log2 mean competition ratio” value was -0.236.
In the case of OPA3 C164 (UniProt Q9H6K4), the “log2 mean competition ratio” value is reported as 0.0108.
OCRL C811 (UniProt Q01968) was tested, and the “log2 mean competition ratio” value was -0.142.
With NSD1 C1185 (UniProt Q96L73) the “log2 mean competition ratio” value was -0.0455.
With NSD2 C594 (UniProt O96028) the “log2 mean competition ratio” value was 0.00441.
For NUMB C176 (UniProt P49757), the “log2 mean competition ratio” value was 0.189.
For OBI1 C506 (UniProt Q5W0B1), the “log2 mean competition ratio” value was 0.275.
NUMBL C206 (UniProt Q9Y6R0) was tested, and the “log2 mean competition ratio” value was 0.195.
For NRBF2 C155 (UniProt Q96F24), the “log2 mean competition ratio” value was 0.279.
For NR1D2 C374, the “log2 mean competition ratio” value was -0.204.
NUMA1 C375 (UniProt Q14980) was tested, and the “log2 mean competition ratio” value was -0.504.
For NUP98 C1347 (UniProt P52948), the “log2 mean competition ratio” value was -0.404.
In the case of OGDH C283 (UniProt Q02218), the “log2 mean competition ratio” value is reported as -0.264.
For NUP35 C243 (UniProt Q8NFH5), the “log2 mean competition ratio” value was 0.291.
With NSD1 C342 (UniProt Q96L73) the “log2 mean competition ratio” value was 0.187.
For NOTCH2 C1252 (UniProt Q04721), the “log2 mean competition ratio” value was -0.0395.
NUP205 C1216 (UniProt Q92621) was tested, and the “log2 mean competition ratio” value was -0.476.
With NUP153 C404 (UniProt P49790) the “log2 mean competition ratio” value was 0.132.
In the case of NPAT C1002 (UniProt Q14207), the “log2 mean competition ratio” value is reported as 0.192.
NT5C3A C120 (UniProt Q9H0P0) was tested, and the “log2 mean competition ratio” value was -0.0753.
In the case of OSBPL6 C379 (UniProt Q9BZF3), the “log2 mean competition ratio” value is reported as -0.809.
With OBSL1 C13 (UniProt O75147) the “log2 mean competition ratio” value was 0.503.
For NVL C309 (UniProt O15381), the “log2 mean competition ratio” value was 0.0994.
In the case of NR0B1 C255, the “log2 mean competition ratio” value is reported as -0.659.
OGFR C443 (UniProt Q9NZT2) was tested, and the “log2 mean competition ratio” value was 0.425.
With NPLOC4 C130 the “log2 mean competition ratio” value was -0.217.
NTMT1 C184 was tested, and the “log2 mean competition ratio” value was -0.0815.
OSBPL3 C114 (UniProt Q9H4L5) was tested, and the “log2 mean competition ratio” value was -0.553.
For NUP155 C1344 (UniProt O75694), the “log2 mean competition ratio” value was -0.0526.
For NSMAF C435 (UniProt Q92636), the “log2 mean competition ratio” value was -0.0218.
For NR2F6 C316 (UniProt P10588), the “log2 mean competition ratio” value was 0.787.
NSMCE1 C40 (UniProt Q8WV22) was tested, and the “log2 mean competition ratio” value was 0.396.
For NUP85 C51 (UniProt Q9BW27), the “log2 mean competition ratio” value was 0.541.
In the case of NT5C3B C114 (UniProt Q969T7), the “log2 mean competition ratio” value is reported as -0.0218.
In the case of NUP54 C180 (UniProt Q7Z3B4), the “log2 mean competition ratio” value is reported as 0.0592.
